# In PubChem BioAssay AID1347423 (Functional Genomics Laboratory (NCATS/FGL), 2020):
# Screen size: about 52,000 sequences; about 210 (0.4%) were called active.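 How the source made its calls: active means gene whose silencing raises cell survival under the drug, median off-target-corrected z-score across its silencing RNAs 2 or more; inactive means the rest.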 The list shows a part of the results.
# Experiment: Resistance to Poly (ADP-Ribose) Polymerase inhibitor: Gene Identification via Genome-wide siRNA Screen
# Settings: mouse BRCA2 R2336H ES cells, olaparib, CellTiter-Glo viability; hits give high values
# In short: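 Genome-wide siRNA screen (3 siRNAs/gene, 20 nM) in mouse ES cells carrying hypomorphic BRCA2 R2336H; olaparib 500 nM added 48 h post-transfection, CellTiter-Glo viability 72 h later. Normalized to plate-median negative control; MAD z-scores, gene median, seed-adjusted.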
row,Sequence,z-score
1,GGUCAAGUGUCUGAACAACTT against Fkbp8,inactive: -0.899
2,GGCAGACUUUUGACAACUATT against 6430546I09,inactive: -1.4
3,GUUUCCUCAAUGUCUCAGUTT against Olfr1461,inactive: 0.934
4,GGAAACCGUUUUUUUUUUCTT against Appbp2,inactive: -0.767
5,CCUGGCACUCAUAGUAUACTT against Tm6sf2,inactive: 0.163
6,GGGCCUUCAGAAGAACAUGTT against Ganab,inactive: -1.5
7,GGAGAACAGUAACAUUUUUTT against Pcdh7,inactive: -0.494
8,GGCCAUAGUCCUGUUCACCTT against Nr2f2,inactive: 0.454
9,GGACAGAUCUUUGAAGCAGTT against Vps18,inactive: -1.8
10,GGAAAACUAUGCAGGCAUCTT against Capn2,inactive: -0.919
11,GCUGCGUAGAACCAUAUGCTT against Cst9,inactive: 1.56
12,GCUAAUCGGAUGCUGAAGCTT against Psmb7,inactive: -1.98
13,GGAAGUAUUGACGAGUGGGTT against BC061259,inactive: -0.122
14,GGUGUUAGGGCUCAAAUAUTT against Glce,inactive: -1.87
15,CCAUCAUGAACACUCAACATT against Olfr462,inactive: -2.9
16,GGCGGAGAAUCACCUCACATT against Tgfbrap1,inactive: -1.14
17,CGGAUUUUAAAAGGUCACGTT against Vti1a,inactive: 1.2
18,GGAGACAUUGUCCUCUACATT against Car14,inactive: -2.59
19,GCAGCUUGUAUGCAGCACUTT against 4632417K18Rik,inactive: 0.136
20,GGAGAUCUUAGCAAAGUAUTT against Degs,inactive: -1.64
21,CCUUGGAGUGAAGGAUCGCTT against Cited1,inactive: 0.387
22,GUAUGUUUGGGCUUAGCCUTT against Olfr1348,inactive: -0.426
23,GCAGUGUCAGAGUUAGAAATT against Pon1,inactive: -0.209
24,CCAUGGUUAACAUUGACAUTT against Ppp1r16b,inactive: -0.166
25,GCGCAUUCAGAUUGUAACATT against Nr2c2,inactive: -0.869
26,GGUGUGAGUGUCGGAAUCUTT against B930052A04Rik,inactive: 0.258

# 2 neighbouring records from above, for reference:
row,Sequence,z-score
10,GGAAAACUAUGCAGGCAUCTT against Capn2,inactive: -0.919
11,GCUGCGUAGAACCAUAUGCTT against Cst9,inactive: 1.56

# In a second layout: entries from further up.
row | Sequence | z-score
6 | GGGCCUUCAGAAGAACAUGTT against Ganab | inactive: -1.5
7 | GGAGAACAGUAACAUUUUUTT against Pcdh7 | inactive: -0.494
8 | GGCCAUAGUCCUGUUCACCTT against Nr2f2 | inactive: 0.454
9 | GGACAGAUCUUUGAAGCAGTT against Vps18 | inactive: -1.8
10 | GGAAAACUAUGCAGGCAUCTT against Capn2 | inactive: -0.919
11 | GCUGCGUAGAACCAUAUGCTT against Cst9 | inactive: 1.56
12 | GCUAAUCGGAUGCUGAAGCTT against Psmb7 | inactive: -1.98

# Later entries:

row,Sequence,z-score
1,GGAGCUGAAAACCUGAGGATT against Pkn2,inactive: -1.09
2,GGCAAAAACCAUAAACUAGTT against Clcn4-2,inactive: -1.2
3,GGGUAACAGAUACUGUUAUTT against A730041O15Rik,inactive: 0.642
4,GGACUGCCCUUUGGACAAATT against V1ri1,inactive: -1.41
5,CCUCUCCAUACUCACCAUGTT against Fbxo23,inactive: -0.257
6,GCAUAAGUAUAAUCCUGUUTT against Plagl1,inactive: -0.0918
7,UGGUUACGAACCCAUGGGUTT against Amelx,inactive: -2.44
8,CCAUUGGUUUUGAGGAUAUTT against 2510048O06Rik,inactive: -3.24
9,GGGAAACUAUUCUAGACGCTT against 1700113O17Rik,inactive: 0.187
10,AGAUAUUUGGCUGUGACCGTT against Amt,inactive: 0.816
11,CCACGUCUCUUAAGUGAAATT against Scamp1,inactive: -0.0595
12,GGUUGUAGAACAUGAGUUATT against Fcmd,inactive: 1.85
13,CCAAGAGAUUGCUAAUUGCTT against Cbfa2t1h,inactive: 0.739
14,GGGAGGAUGAACAUCAAAGTT against Lace1,inactive: 1.43
15,GCACAAGAUGUGAAGAUUATT against 1110006I15Rik,inactive: 0.355
16,GCUGUAAAACCUGUCGUAATT against Mt4,inactive: 0.196
17,GGAAAGAAUUGAAUACUCGTT against Gpr89,inactive: 0.335
18,GGACUCAGCAACAGGUCUUTT against Ors6,inactive: -1.34
19,GCAGCUCACCAUCCUUCAATT against Fcnb,inactive: 1.18
20,GGCCAACCUACUUUUCUGGTT against Mgll,inactive: 0.668
21,GCCAGAAGGACCUCUUCACTT against Arhgap24,inactive: 0.38
22,GGCCUUCACUGAUGAAUGUTT against C87499,inactive: 0.0325
23,CCACGAAUUAAGUAAUGGUTT against Rtl1,inactive: 0.612
24,GCACAAACUUAUGCUCUUUTT against Klrc3,inactive: -0.865
25,GGCAUCUCACUGGAAGUGATT against 2810408E11Rik,inactive: -0.651
26,GGGUUACACAGAGUACAAATT against Snx15,inactive: -1.95

row,Sequence,z-score
1,GGCUGAGUCUGGCUAACUUTT against Dio3,inactive: -0.066
2,CGACAAUCAGGAGAUUGCATT against Npm3,inactive: -0.0122
3,GGGAAAUUGUAUUCAAUACTT against Cebpz,inactive: 0.657
4,GGCUGUGUGAGUCUGCUCATT against C030011J08Rik,inactive: -0.00521
5,GGGAAGUGGAAACAGUUCUTT against Icam2,inactive: -0.624
6,GGAUCAUCAGUUUCUUUAUTT against 4930486L24Rik,inactive: -0.993
7,GGUGUCCAAGCAGAAGCAGTT against Rab25,inactive: -0.782
8,GGUCUUCCGGAUCUUCAACTT against Adcyap1r1,inactive: 0.433
9,GCAUCUACUAUCCAAGUGATT against Alox15b,inactive: -1.12
10,GGAACUGGAGAUGCACAGCTT against 1110012J17Rik,inactive: -0.386
11,CCAAUUAUCCUUCUGUUACTT against Olfr790,inactive: 0.0345
12,GGGAAGAGAAACACAGAUGTT against 2410146L05Rik,inactive: 0.589
13,GGUAUGAACACUUUCAAAATT against Olfr297,inactive: 0.543
14,CGACGAACCUGAGUAUAUUTT against Canx,inactive: -0.253
15,GGAAGAAACUGGAAAGAUUTT against Ankrd23,inactive: -0.154
16,GGAAGAAUCACCAUUGAAGTT against Plcz1,inactive: 1.61
17,CGUUGUGAGGUUAUACGACTT against 2810442O16Rik,inactive: 0.687
18,CGAGUUCAUCAAAAAGGAATT against 1110028C15Rik,inactive: -0.0939
19,GGAACAAGUCUUCAACUCATT against Wap,inactive: -0.593
20,GGCCUUUUUGCCACGUAUGTT against Dhrs3,inactive: 2.34
21,GCUCUAGAAAGUUACAGAUTT against Crtam,inactive: -0.162
22,GGAAAAGCUAAUAAAAGCUTT against Ptgis,inactive: -0.54
23,GCUUCCACGUGUUUGACCATT against Hsf1,inactive: 0.983
24,GGAACACUGGAUUAUUGAGTT against Gamt,inactive: -0.0518
25,GGAGUAUGUCAAUUAGCAUTT against V1re1,inactive: 0.715
26,GGUCAACCUAAACCAGCAGTT against Csng,inactive: -1.91

row,Sequence,z-score
1,CCUAGAGCGUGCCCUAGAATT against 2310066I18Rik,inactive: 0.0379
2,GGGAGAAAUGCAAAUAUUUTT against Mbnl2,inactive: 1.49
3,GGUUCUCAUAACGACCAAUTT against Ddx25,inactive: 0.142
4,GGGAUGAAUAUUUGUGUCATT against D130060H24Rik,inactive: 0.0958
5,GGGAGUAUCCAUUCAAGCCTT against Ube2l6,inactive: 1.05
6,GGCGACAUUCUCAUCCUAATT against Slc38a1,inactive: 1.37
7,CCAAGACCCAAACUUACUGTT against Tnnt3,inactive: -1.21
8,GGAAAUGCCACCAAAGAACTT against 9330158F14Rik,inactive: -0.618
9,GCCAUAGAGUAUCAGCUGATT against 4930506L13Rik,inactive: -0.581
10,GGAUUCUGUUCAACAUUGGTT against Olfr1148,inactive: 0.536
11,GCAGUAACGAGGUUUUGAUTT against C030048B08Rik,inactive: -0.239
12,GGAACUGAAAAAGAAAACATT against 2400003C14Rik,inactive: -0.222
13,GCCUAGCUUUCUUGUAUUATT against Tas2r144,inactive: -0.692
14,CGACUUCGCCUUAUGAGAUTT against Tst,inactive: -1.35
15,GGAAAACCAGCUAAUUAUCTT against Ptger3,inactive: 1.22
16,GGUGGUCUGAUCGUAGACATT against BC027309,inactive: 0.849
17,GGAGACUGCUUCUAAAGAUTT against 1810073G14Rik,inactive: -0.499
18,GCUGGAGGGAUGCGAAUCUTT against 2310032F03Rik,inactive: 0.199
19,GGCCUCUUCCUGCUUCUUATT against 1810021J13Rik,inactive: 0.499
20,GCUCUGCCUUCAGAUGAUCTT against Olfr172,inactive: 1.16
21,CCAUCCUUCCAAUUAUGAATT against Rhot1,inactive: 0.21
22,GGAAAAGGCUACGGCAUUUTT against Tapbp,inactive: -0.271
23,CCUACAGAAUAGAAAAUUCTT against 9830169G11Rik,inactive: 0.438
24,GGAGGAUACACAGAGGCAUTT against Tcap,inactive: 0.472
25,GCAAAGAUCCAAAUAUUGUTT against Grp58,inactive: 0.335
